These are yes or no findings as the source states them, for the method shown. Binding calls can cover weak binding; strength is not graded here.
Target: T1, Scs3 (S. cerevisiae) (UniProt P53012)
T1 sequence: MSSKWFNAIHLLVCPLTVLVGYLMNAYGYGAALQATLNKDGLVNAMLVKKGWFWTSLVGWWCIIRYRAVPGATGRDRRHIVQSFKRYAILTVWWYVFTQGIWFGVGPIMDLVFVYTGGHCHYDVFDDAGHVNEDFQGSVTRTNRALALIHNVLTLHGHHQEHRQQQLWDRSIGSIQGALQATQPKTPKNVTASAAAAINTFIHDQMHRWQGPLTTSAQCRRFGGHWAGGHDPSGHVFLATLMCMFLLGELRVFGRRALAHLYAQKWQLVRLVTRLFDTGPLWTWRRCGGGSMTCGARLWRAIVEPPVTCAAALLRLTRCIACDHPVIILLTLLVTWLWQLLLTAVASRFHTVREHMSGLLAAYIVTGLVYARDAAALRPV
Assay: two-hybrid

Sequences of proteins named here, by UniProt entry; tags and fusion partners are left off. A change or cut given only in a name is not applied to a line headed by its entry.
UniProt P25043: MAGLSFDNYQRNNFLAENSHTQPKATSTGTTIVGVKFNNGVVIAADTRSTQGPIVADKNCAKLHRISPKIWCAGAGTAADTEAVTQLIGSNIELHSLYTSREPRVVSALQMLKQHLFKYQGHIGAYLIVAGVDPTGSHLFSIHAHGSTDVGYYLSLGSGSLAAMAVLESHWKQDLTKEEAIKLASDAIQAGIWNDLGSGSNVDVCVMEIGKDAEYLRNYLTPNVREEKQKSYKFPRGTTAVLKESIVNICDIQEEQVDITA

In the case of Pup1 (from UniProt P25043), the binding was “binds”.

Source: doi:10.1101/2020.04.06.027847
